Experimental data from publication PMC6349449.
Results are given in words; binding and its absence hold for the method and conditions named. Binding seen in cells or lysates may run through a third protein. A result given as binding can be weak or reduced; the word gives no strength.

Protein sequences, listed by entry. Tags and fused reporters are not part of them.
UniProt O09106: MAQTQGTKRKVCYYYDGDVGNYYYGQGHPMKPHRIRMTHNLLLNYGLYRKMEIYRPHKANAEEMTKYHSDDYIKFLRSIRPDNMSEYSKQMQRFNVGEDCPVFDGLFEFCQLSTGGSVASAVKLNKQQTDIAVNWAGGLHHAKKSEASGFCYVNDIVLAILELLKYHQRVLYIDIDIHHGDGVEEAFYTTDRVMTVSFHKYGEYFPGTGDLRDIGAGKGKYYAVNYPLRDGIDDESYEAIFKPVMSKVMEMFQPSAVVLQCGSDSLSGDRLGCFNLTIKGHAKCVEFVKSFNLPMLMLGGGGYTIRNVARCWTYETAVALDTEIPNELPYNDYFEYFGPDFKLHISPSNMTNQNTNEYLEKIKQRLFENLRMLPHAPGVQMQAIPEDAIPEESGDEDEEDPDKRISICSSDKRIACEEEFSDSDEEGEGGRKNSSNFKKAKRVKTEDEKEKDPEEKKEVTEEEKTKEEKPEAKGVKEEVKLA

Molecular target: Histone deacetylase 1 (Hdac1) (UniProt O09106)
Assay: pull-down; GST pulldown; which partner carried GST and the conditions are not told in the text shown (Supplementary Figure 3)

binding: binds
Substance: Transducin-like enhancer of split 3 (Tle3) (from UniProt Q08122-4)
